Laboratory results: publication doi:10.1101/2020.05.13.094102
Like-named read-outs stand apart in the source and are kept apart here. These are yes or no findings as the source states them, for the method shown. Some results given as binding are weak or reduced against the parent protein; the word gives no strength.

The chains behind the UniProt entries cited, without tags or fusion partners. Residues count along the entry.
UniProt P36544, residues 23-502: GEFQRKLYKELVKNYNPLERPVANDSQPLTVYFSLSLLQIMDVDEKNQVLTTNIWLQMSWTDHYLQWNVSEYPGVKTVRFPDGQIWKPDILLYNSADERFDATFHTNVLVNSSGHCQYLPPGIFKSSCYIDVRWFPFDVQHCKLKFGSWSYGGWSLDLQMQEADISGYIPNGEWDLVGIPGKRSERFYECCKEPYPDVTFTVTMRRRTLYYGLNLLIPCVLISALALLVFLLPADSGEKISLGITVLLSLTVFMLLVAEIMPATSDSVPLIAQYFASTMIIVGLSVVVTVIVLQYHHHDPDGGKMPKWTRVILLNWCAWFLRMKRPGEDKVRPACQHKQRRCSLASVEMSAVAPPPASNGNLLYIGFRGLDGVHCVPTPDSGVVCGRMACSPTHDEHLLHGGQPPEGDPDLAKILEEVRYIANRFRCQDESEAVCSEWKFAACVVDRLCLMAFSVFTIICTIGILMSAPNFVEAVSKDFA
UniProt P17787, residues 26-502: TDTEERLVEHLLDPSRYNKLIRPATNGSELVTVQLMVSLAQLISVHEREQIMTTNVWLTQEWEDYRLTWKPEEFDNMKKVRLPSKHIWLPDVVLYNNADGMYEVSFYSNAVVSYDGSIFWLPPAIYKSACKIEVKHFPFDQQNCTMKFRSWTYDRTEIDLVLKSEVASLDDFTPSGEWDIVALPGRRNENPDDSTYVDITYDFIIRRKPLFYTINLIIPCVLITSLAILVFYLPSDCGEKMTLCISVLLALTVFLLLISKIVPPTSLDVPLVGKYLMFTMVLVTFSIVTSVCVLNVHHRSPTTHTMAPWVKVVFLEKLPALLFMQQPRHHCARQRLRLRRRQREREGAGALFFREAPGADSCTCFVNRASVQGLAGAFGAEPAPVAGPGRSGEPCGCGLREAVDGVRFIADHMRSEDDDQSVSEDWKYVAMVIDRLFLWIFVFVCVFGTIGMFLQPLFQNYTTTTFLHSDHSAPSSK
UniProt Q07812: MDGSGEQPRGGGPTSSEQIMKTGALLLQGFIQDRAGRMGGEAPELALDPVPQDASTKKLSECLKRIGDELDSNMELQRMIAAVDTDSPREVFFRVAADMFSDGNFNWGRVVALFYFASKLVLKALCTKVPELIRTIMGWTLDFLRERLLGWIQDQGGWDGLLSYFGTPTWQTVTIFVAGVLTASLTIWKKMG

Tests used:
Assay in all cases: ELISA
[1] = biological target: α7 nicotinic acetylcholine receptor subunit (human (endogenous in U373)) (UniProt P36544)
[2] = biological target: β2 nicotinic acetylcholine receptor subunit (human (endogenous in U373)) (UniProt P17787)
[3] = biological target: α7 nicotinic acetylcholine receptor subunit (human (endogenous in U373)) (UniProt P36544); remark: listed apart in the source

binding [1]: binds
binding [2]: binds
binding [3]: binds
Substance: Bax (from UniProt Q07812 1-192)
